# According to PubChem BioAssay AID624445 (Broad Institute, 2012):
# Only results without a clear call are listed here; the source files them as inconclusive.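 Rule for the calls: active = fitted curve drops past -35% activity change at a concentration under twice the top valid tested dose; inconclusive = no clear call, values can overlap the other calls; inactive = the rest, including effects in the wrong direction.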
# Tested on: 26S proteasome chymotrypsin-like activity (human)
# Assay: proteasome chymotrypsin-like activity inhibition in cells, dose response, mechanism study for HSF1 activator project, cell-based, U2OS, Proteasome-Glo luminescence, dry powder, set 2 (AID 624445)
# Settings: at 38 µM (top of the series)
smiles,measurement,value
O=C(Nc1ccccc1)Nc1nc(SCc2ccccc2)ns1,"activity change, negative = inhibition",inconclusive: -36.7%
